Laboratory results reported in patent US20200291082A1, “PREVENTION AND TREATMENT OF GRAFT-VERSUS-HOST-DISEASE WITH DEFENSINS” (priority 2017, published 2020).
At least one compound was matched to its structure with a doubt left.

Columns and labels:
[1] = system: CD4+CD25+ Tcell transfer induced colitis; assay: therapeutic murine 14 weeks CD4+CD25+ Tcell transfer induced colitis model (Example 6); format: in vivo, SCID mice; settings: hBD2 1 mg/kg s.c. OD, Dexamethasone 0.3 mg/kg i.p. OD, Enbrel 100 μg/mouse s.c. twice weekly
Source text: Efficacy of s.c. administration of hBD2 versus s.c. anti TNF-α (Enbrel) and intraperitoneal dexamethasone in a therapeutic, murine, 14 weeks, CD4+CD25+ Tcell transfer induced colitis model.
70 female BALB/c mice housed in groups of five per cage were allocated to 7 different treatment groups. Colitis was induced in SCID mice by transplantation of CD4+CD25+ Tcells from BALB/c mice. Lymphocytes isolated from spleen and lymph nodes from BALB/c mice were subjected to negative selection of CD4+ Tcells. Afterwards, CD4+CD25+ cells were positively isolated by binding to the beads from the CD4+ Tcell suspensions and the CD4+CD25− were collected from the supernatant. The animals were treated with hBD2, 0.1 mg/kg s.c. OD; 1 mg/kg s.c. OD or 3 mg/kg s.c. OD or with mouse anti TNFα 100 μg/mouse s.c. twice weekly or with dexamethasone 0.3 mg/kg intraperitoneally OD or PBS s.c. as vehicle from day 7 and 86 consecutive days.
Clinical assessment was based on body weight loss, stool consistency and presence of blood per rectum. The animals were sacrificed on day 95 and colon removed for assessment of weight and myeloperoxidase activity.

[2] = system: house dust mite model of allergic asthma; assay: therapeutic intranasal versus oral hBD2 in murine house dust mite model of allergic asthma (Example 10); format: in vivo, BALB/c mice; settings: dexamethasone 1 mg/kg BID oral
Description: To determine and assess the efficacy of IN versus oral therapeutic intervention with defensins in a murine house dust mite model of allergic asthma.
Treatment regime: Female 7-10 weeks old BALB/c mice were randomly allocated into 7 study groups one day prior to study start and subcutaneously (SC) sensitized to house dust mite (100 μg HDM in 200 μL saline plus Freund's complete adjuvant in 0.9% saline). Mice were then intranasally (IN) challenged with HDM on day 14 (HDM 25 μg in 50 μL of saline). Dexamethasone was administered orally (1 mg/kg BID; 50 μL phosphate buffered saline (PBS)) on day 14. hBD2 was administered IN or orally (1.7 mg/kg TID IN; 0.4 mg/kg TID IN; 0.4 mg/kg TID orally, 50 μL phosphate buffered saline) on day 14. The initial dose was administered 60 minutes prior to challenge, and the subsequent doses approximately 6 hours apart (FIG. 5).
Airway inflammation: At 48 hours post challenge, bronchoalveolar lavage was performed washing the lungs with 3 volumes of cold PBS (0.4; 0.3 and 0.3 mL, total 1 mL). Total and differential leucocyte cell counts were determined on an automated haematological analyser Sysmex XT-2000iV.
Data are represented as airway resistance at […] methacholine and as dose responsive curves.
Lung sampling for cytokine analysis: After completion of every BAL, lungs were removed from the thorax, snap frozen in liquid nitrogen and stored frozen at −80 degrees Celsius until analysis of cytokine concentration of IL-1β, TNF-α, IL-6, IL-10 and IFNγ by ELISA.

[3] = system: Dextran Sodium Sulphate induced colitis; assay: therapeutic murine 14-day Dextran Sodium Sulphate induced colitis model (Example 5); format: in vivo, C57BL/6 mice; settings: Dexamethasone 1 mg/kg i.p. OD
Description: Anti-inflammatory effect of s.c. administration of hBD2 versus intraperitoneal anti TNF-α and intraperitoneal dexamethasone in a therapeutic, murine, 14-day, Dextran Sodium Sulphate induced colitis model.
70 male C57BL/6 mice housed in groups of five per cage were allocated to 7 different treatment groups. All animals had their drinking water supplemented with DSS 2% for 14 days to induce colitis resulting in significant inflammation and injury of the colonic tissue. The animals were treated with hBD2, 0.1 mg/kg s.c. BID; 0.1 mg/kg s.c. OD or 1.2 mg/kg i.v. […]
A disease activity index (DAI) scoring system was applied for clinical assessment (FIG. 7). The animals were sacrificed on day 14 and colon removed for histological assessment employing a histological scoring system (FIG. 8)

[4] = hBD2 both IN doses (0.4 mg/kg/day TID and 1.7 mg/kg/day TID)

C[C@@H]1C[C@H]2[C@@H]3CCC4=CC(=O)C=C[C@]4(C)[C@@]3(F)[C@@H](O)C[C@]2(C)[C@@]1(O)C(=O)CO [Dexamethasone]
myeloperoxidase activity ([1]; colon, day 95): statistically significant and similar effect
clinical score (body weight loss, stool consistency, presence of blood per rectum) [1]: statistically significant and similar effect on clinical score
colon weight ([1]; day 95): statistically significant and similar effect on colon weight
AHR measurements [2]: influenced AHR measurements
lymphocyte counts in BALF [2]: but not
IFN-γ level in lung tissue homogenates ([2]; versus HDM/vehicle control): did not influence levels
IL-1β level in lung tissue homogenates ([2]; versus HDM/vehicle control): did not influence levels
IL-6 level in lung tissue homogenates ([2]; versus HDM/vehicle control): did not influence levels
IL-10 level in lung tissue homogenates ([2]; versus HDM/vehicle control): did not influence levels
TNF-α level in lung tissue homogenates ([2]; versus HDM/vehicle control): did not influence levels
eosinophil counts in BALF [2, 4]: significantly inhibited
macrophage counts in BALF [2, 4]: but not
neutrophil counts in BALF [2, 4]: but not
total cell counts in BALF [2, 4]: significantly inhibited
disease activity index (DAI) ([3]; hBD2 0.1 mg s.c. OD, day 8 to day 14): statistically significant effect on DAI
histological score ([3]; hBD2 0.1 mg/kg s.c. OD, colon day 14): statistically significant effect on histological score
